Laboratory results as given in PMC5762833.

Sequences of proteins named here, by UniProt entry; tags and fusion partners are left off. A change or cut given only in a name is not applied to a line headed by its entry.
UniProt P24557: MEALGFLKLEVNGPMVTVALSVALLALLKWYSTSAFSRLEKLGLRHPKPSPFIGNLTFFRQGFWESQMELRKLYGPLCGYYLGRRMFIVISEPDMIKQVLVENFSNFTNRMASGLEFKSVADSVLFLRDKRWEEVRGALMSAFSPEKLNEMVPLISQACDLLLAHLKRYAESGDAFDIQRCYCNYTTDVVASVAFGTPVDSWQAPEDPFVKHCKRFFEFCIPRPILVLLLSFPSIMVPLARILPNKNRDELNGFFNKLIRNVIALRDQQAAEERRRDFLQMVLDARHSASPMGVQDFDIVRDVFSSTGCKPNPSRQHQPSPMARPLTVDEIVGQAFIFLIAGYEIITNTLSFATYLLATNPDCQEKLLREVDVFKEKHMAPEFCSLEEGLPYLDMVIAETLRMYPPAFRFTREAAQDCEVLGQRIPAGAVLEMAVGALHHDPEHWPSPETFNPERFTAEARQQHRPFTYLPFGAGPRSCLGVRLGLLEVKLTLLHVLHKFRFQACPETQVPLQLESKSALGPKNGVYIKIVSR
UniProt P16435: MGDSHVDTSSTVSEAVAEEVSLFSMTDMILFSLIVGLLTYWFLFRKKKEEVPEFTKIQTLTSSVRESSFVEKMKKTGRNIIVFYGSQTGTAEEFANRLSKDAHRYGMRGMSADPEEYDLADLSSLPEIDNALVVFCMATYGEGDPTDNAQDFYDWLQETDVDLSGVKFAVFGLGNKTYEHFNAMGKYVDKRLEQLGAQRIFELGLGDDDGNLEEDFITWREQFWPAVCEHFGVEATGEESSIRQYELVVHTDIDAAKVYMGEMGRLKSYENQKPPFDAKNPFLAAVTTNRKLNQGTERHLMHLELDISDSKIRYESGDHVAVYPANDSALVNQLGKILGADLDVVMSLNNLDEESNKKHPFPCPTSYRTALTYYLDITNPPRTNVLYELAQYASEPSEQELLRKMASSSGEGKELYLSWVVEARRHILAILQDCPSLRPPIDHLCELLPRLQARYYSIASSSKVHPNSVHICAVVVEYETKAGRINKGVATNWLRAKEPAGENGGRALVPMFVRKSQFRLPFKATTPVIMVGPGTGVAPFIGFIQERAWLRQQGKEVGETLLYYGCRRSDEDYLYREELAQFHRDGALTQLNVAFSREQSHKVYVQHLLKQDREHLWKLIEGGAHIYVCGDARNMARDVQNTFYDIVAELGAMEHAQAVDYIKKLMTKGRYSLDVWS
UniProt P20815: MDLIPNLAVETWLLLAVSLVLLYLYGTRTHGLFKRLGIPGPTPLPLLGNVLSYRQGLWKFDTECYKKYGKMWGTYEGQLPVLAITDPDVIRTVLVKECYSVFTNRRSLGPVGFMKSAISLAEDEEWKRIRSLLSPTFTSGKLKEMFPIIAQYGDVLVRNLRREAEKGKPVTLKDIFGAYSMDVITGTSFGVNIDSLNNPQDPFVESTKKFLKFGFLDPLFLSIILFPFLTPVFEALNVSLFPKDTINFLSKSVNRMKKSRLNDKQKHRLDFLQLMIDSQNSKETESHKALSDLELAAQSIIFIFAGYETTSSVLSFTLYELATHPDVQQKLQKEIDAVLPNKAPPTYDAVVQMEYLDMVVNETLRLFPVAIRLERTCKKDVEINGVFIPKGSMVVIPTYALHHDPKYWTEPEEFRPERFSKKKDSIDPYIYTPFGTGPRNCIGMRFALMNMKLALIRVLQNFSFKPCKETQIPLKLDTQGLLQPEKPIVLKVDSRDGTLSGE
UniProt P33261: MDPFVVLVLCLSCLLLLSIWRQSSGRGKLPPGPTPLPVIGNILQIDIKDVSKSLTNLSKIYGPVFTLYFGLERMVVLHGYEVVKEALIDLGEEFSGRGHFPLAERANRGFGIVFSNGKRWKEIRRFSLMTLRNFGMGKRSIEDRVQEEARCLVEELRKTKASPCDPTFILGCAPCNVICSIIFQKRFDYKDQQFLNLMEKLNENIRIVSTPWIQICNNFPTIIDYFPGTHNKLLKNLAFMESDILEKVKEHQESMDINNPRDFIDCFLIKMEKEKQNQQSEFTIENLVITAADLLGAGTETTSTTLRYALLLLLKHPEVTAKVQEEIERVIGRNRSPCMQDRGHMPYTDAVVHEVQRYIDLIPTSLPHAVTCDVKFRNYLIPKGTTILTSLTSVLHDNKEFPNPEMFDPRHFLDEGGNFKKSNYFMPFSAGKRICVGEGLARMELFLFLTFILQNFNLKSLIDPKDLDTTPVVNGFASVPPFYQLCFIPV
UniProt Q13485: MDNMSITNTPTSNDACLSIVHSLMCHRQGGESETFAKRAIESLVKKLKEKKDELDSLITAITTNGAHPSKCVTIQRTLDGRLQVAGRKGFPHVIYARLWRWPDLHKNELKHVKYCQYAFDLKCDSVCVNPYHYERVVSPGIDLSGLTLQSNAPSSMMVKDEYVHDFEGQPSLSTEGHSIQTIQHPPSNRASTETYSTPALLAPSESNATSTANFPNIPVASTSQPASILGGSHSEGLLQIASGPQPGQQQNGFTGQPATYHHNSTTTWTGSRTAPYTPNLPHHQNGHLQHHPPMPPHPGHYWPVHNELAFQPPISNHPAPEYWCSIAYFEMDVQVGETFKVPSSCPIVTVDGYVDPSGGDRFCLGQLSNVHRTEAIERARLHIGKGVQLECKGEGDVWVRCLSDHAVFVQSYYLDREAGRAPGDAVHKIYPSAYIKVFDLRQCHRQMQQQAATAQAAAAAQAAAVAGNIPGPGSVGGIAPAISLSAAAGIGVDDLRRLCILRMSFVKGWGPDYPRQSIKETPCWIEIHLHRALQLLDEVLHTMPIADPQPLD
UniProt P00167: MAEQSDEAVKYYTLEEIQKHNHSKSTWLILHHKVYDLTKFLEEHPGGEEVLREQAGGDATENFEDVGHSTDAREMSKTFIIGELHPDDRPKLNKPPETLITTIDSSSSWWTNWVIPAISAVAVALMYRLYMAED
UniProt P08684: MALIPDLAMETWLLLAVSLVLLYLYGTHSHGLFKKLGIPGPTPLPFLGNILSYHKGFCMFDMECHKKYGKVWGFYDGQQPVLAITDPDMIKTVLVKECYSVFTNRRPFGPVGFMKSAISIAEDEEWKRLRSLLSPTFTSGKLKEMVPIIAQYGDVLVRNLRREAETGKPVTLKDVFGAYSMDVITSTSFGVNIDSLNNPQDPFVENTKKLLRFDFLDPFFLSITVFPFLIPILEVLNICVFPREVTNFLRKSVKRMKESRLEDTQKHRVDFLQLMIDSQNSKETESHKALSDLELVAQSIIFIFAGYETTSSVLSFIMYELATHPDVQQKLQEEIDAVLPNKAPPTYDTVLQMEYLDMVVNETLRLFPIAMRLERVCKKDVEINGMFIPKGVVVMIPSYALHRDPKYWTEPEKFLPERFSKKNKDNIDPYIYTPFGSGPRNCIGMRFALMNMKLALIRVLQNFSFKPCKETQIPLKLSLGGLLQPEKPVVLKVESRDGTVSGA

Biological target: Human thromboxane synthase (TBXAS1) (human) (UniProt P24557)
Experiment: condition: micromolar concentrations (50 nM to 5 μM injected); SPR; Biacore 3000; TBXAS1 amine-coupled to a CM5 chip (about 7,500 RU); analytes 50 nM to 5 μM injected for 10 min at 5 μL/min; control channel without protein; both purified

Substance: NADPH-cytochrome-P450-reductase (CPR) (from UniProt P16435) (enzyme)
binding: no binding

Substance: cyclic hydrocarbon hydroxylase (CYP3A5) (from UniProt P20815 1-502) (enzyme)
binding: no binding

Substance: limonene 6-monooxygenase (CYP2C19) (from UniProt P33261 1-490) (enzyme)
binding: no binding

Next, values leading:

binding: no binding
Substance: SMAD4 (from UniProt Q13485 1-552)

binding: no binding
Substance: microsomal cytochrome b5 (CYB5A) (from UniProt P00167 1-134)

binding: no binding
Substance: taurochenodeoxycholate-6α-monooxygenase (CYP3A4) (from UniProt P08684) (enzyme)

These are yes or no findings as the source states them, for the method shown. Each block holds one substance with its values, some of them ahead of it.
